Changes are numbered by the printed parent chain. No constants are given. Whether binding was seen depends on the method and setting. Some binding calls cover weakened binding; strength is not graded here.
T1: CD84 (human) (UniProt Q9UIB8)
T1 sequence (looked up): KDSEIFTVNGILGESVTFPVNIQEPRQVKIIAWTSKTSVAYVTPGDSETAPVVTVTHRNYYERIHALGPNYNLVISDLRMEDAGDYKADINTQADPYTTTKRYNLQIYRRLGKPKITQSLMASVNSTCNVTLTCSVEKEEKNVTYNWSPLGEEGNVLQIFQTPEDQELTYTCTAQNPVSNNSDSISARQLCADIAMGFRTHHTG

By UniProt entry, the sequences of proteins in these tests, tags left out. Residues count along the entry.
UniProt Q07108, residues 62-199: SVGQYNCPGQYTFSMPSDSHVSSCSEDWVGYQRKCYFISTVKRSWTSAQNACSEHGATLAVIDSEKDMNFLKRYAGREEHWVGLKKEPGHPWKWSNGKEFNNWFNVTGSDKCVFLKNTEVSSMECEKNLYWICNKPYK

B1: A1 scFv (scFv)
scFv: QVQLQQSGPGLVQPSRTLSLTCAISGDSISSNTASWNWIRQSPSRGLEWVGKTEYRSGWFFEYAPSVGGRVNISPDTSKNQFSLQLNSVTPEDTAVYFCARDSYNDYDNDGFDIWGQGTLVTVSSGGGGSGGGGSGGGGSGGGGSQSVLTQPPSVSAAPGQKVTISCSGSSSNIGSNYVAWYQQLPGTAPKLLIYDTNKRPSGIPDRFSGSKSGTSATLGITGLQTGDEADYYCGTWDSSLSAEVFGTGTKVTVL
B2: H3 scFv (scFv)
scFv: QVQLQQSGPGLVKPSQTLSLTCDISGDSVFSNTASWNWIRQSPSRGLEWLGKTEYRSQWLHEYAPSVRSRIAIRPDTSKNQVSLQLSFVTPEDTAVYYCVRDSYNGYAFDGFDTWGQGTLVTVSSGGGGSGGGGSGGGGSGGGGSQSVVTQPPSVSAAPGQKVTISCSGRNSNIANNFVSWYRQLPGTAPKLLIYDNNKRPSGIPDRFSGSKSGTSATLAITGLQTGDEADYYCESWDSSLTAEVFGTGTKVTVL
B3: G1 scFv (scFv)
scFv: QVQLQQSGPGLVKPSQTLSLTCAISGDSVFSTTASWNWIRQSPSRGLEWLGKTEYRSKWFDEYAPSVKGRIAIRPDTSRNQVSLQLNSMTPEDTAVYFCVRDSYNGYDFDGFDIWGQGTTVTVSSGGGGSGGGGSGGGGSGGGGSQSVVTQPPSVSAAPGQKVTISCSGSSSNIGNNYVSWYQQLPGTAPKLLIYDNNKRPSGIPDRFSGSKSGTSATLGITGLQTGDEADYYCGTWDSSLSAEMFGGGTKVTVL
B4: C1 scFv (scFv)
scFv: QVQLQQSGPGLVKPSQTLSLTCAISGDSVSSNSASWNWIRQSPSRGLEWLGKTEYRSKWYYEFAPSVKSRITITPDTSKNQFSLQLNSVTPEDTAVYYCVRDSYNGYDFDGFDIWGQGTLVTVSSGGGGSGGGGSGGGGSGGGGSQSVLTQPPSVSAAPGQKVTISCSGSSSNIGSNYVAWYQQLPGTAPKLLIYDTNKRPSGIPDRFSGSKSGTSATLGITGLQTGDEADYYCGTWDSSLSAEVFGTGTKVTVL
B5: F1 scFv (scFv)
scFv: QVQLQQSGPGLVKPSQTLSLTCAISGDSVFSNSASWNWIRQSPSRGLEWLGKTEYRSKWFDEYAPSVKGRIAIRPDTSKNQVSLQLNSVTPEDTAVYYCVRDSYNGYDFDGFDIWGQGTLVTVSSGGGGSGGGGSGGGGSGGGGSQSVLTQPPSVSAAPGQQVIISCSGSSSNVGNNYVAWYQQVPGAAPRLLIYDNYKRPSGIPDRFSGSKSGTSATLGITGLQSGDEADYYCGSWDSSLSAEVFGGGTKLTAL
B6: C2 scFv (scFv)
scFv: QVQLQQSGPGLVKPSQTLSLTCAISGDSVSSNSASWNWIRQSPSRGLEWLGKVEYRSKWYDEYAPSVKSRIAIRPDTSKNQVSLHLISVTPDDTAVYYCARDSYNGHAFDGFDVWGQGTLVTVSSGGGGSGGGGSGGGGSGGGGSQSVLTQPPSVSAAPGQKVTISCSGSSSNIGDNLVSWYQQLPGTAPKLLIYDNNKRPSGIPDRFSGSKSGTSATLDITGLQTGDEADYYCESWDNNLTAEVFGTGTKVTVL
B7: H2 scFv (scFv)
scFv: B3 scFv with T32N, T33S, R79K, M89V, F98Y, T120L, M245V, V252L
B8: F2 scFv (scFv)
scFv: QVQLQQSGPGLVKPSQTLSLTCAISGDSVFSNSASWNWIRQSPSRGLEWLGKTEYRSKWFDEYAPSVKGRIAIRPDTSKNQVSLQLNSVTPEDTAVYYCVRDSYNGYDFDGFDIWGQGTLVTVSSGGGGSGGGGSGGGGSGGGGSQSVLTQPPSVSAAPGQKVTISCSGGSSNIEKNYVSWYQQLPGTAPKLLIYDTNKRPSGIPDRFSGSKSGTSATLGITGLQTGDEADYYCGAWDNILNSEMFGGGTKLTVL
B9: B8 scFv (scFv)
scFv: QVQLQQSGPGLVKPSQTLSLTCAISGDSVSSNSASWNWIRQSPSRGLEWLGKVEYRSKWYDEYAPSVKSRIAIRPDTSKNQVSLHLISVTPDDTAVYYCARDSYNGHAFDGFDVWGQGTMVTVSSGGGGSGGGGSGGGGSGGGGSQSVLTQPPSLSAAPGQRVTISCSGTTSNIANNFVSWYQQLSGSAPKLLINDNNKRPSGIPDRFSGSKSGASATLAITGLQTEDEADYYCGVWDNSLNAEVFGGGTKVTVL
B10: F12 scFv (scFv)
scFv: QVQLQQSGPGLVKPSQTLSLTCAISGDSVSSNSASWNWIRQSPSRGLEWLGKVEYRSKWYDEYAPSVKSRIAIRPDTSKNQVSLHLISVTPDDTAVYYCARDSYNGHAFDGFDVWGQGTMVTVSSGGGGSGGGGSGGGGSGGGGSQSVVTQPPSVSAAPGQKVTISCSGSSSNIGNNYVSWYQQLPGTAPKLLIYDNNKRPSGIPDRFSGSKSGTSATLGITGLQTGDEADYYCGTWDSSLSAEVFGGGTKVTVL

Target: CD69 (human) (UniProt Q07108)
Assay: ELISA validation of phage display clones

Binder	binding
B1	binds
B2	binds
B3	binds
B4	binds
B5	binds
B6	binds
B7	binds
B8	binds

Target: T1, CD84 (human)
Assay: ELISA validation of phage display clones

Binder	binding
B9	binds
B10	binds

Target: CD69 (human) (UniProt Q07108)
Assay: scFv identified by phage display in a human naive Fab phage library

Binder	binding
B1	binds
B2	binds
B3	binds
B5	binds
B6	binds
B7	binds

Target: T1, CD84 (human)
Assay: as above

Binder	binding
B9	binds
B10	binds

Reference: patent US20260250409A1
